Results are given in words; binding and its absence hold for the method and conditions named. Some entries that bind do so weakly or less than the wild type. Where a sequence is shown, tags or fusion partners need not be part of it.
T1: FruA (fructose-specific Enzyme IICBB' of the PTS) (E. coli K-12 BW25113) (UniProt P20966)
T1 sequence: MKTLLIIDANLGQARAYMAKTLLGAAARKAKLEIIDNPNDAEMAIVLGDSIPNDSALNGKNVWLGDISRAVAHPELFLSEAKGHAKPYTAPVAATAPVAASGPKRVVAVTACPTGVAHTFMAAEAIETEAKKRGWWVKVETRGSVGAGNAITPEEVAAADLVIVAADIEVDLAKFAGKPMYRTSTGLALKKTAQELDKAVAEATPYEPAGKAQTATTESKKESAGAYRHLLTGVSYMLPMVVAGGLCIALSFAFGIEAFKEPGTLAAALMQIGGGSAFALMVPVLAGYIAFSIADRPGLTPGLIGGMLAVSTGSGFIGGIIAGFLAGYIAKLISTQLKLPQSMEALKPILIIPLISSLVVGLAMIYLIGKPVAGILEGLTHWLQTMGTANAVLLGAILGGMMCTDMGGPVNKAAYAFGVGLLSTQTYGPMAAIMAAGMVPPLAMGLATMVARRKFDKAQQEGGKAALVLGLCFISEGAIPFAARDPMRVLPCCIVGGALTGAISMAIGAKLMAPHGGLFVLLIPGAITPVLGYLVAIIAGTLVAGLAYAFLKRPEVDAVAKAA

Amino acid sequences for entries named in this document (tags omitted).
UniProt P00550, whole entry: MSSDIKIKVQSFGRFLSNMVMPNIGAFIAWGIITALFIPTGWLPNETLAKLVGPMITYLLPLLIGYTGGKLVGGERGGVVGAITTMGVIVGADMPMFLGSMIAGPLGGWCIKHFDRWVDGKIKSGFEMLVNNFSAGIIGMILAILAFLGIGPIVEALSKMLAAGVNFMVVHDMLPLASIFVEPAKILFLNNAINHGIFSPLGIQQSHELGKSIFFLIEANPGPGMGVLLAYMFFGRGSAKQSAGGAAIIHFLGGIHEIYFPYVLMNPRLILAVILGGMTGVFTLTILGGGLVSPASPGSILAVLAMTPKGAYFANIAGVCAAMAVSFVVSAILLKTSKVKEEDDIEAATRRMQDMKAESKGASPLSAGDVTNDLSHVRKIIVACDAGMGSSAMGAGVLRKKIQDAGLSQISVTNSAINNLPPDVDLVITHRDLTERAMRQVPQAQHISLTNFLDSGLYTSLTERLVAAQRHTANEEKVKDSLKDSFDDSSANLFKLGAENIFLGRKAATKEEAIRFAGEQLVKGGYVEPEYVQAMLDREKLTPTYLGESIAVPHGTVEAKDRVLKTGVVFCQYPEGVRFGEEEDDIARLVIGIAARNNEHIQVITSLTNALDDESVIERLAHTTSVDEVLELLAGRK

T2: FruB (fructose-specific enzyme IIA-FPr protein) (E. coli K-12 BW25113) (UniProt P69811)
T2 sequence: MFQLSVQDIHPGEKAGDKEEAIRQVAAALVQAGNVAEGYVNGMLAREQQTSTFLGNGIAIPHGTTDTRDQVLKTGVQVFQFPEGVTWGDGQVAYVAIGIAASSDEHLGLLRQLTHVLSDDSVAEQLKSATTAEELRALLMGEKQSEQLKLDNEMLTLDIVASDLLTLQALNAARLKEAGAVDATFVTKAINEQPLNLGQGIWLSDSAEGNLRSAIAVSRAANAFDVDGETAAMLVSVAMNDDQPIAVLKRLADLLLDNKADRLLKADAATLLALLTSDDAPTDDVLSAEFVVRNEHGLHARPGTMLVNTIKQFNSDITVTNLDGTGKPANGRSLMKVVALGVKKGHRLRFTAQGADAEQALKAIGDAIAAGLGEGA


Assays:
[1] = target: T1, FruA (fructose-specific Enzyme IICBB' of the PTS) (E. coli K-12 BW25113); assay: two-hybrid
[2] = target: T2, FruB (fructose-specific enzyme IIA-FPr protein) (E. coli K-12 BW25113); assay: two-hybrid

Row | Molecule | binding [1] | binding [2]
1 | MtlA (mannitol-specific Enzyme IICBA) (from UniProt P00550 1-637) | binds | binds
2 | FruB (fructose-specific enzyme IIA-FPr protein) (protein, UniProt P69811 1-376) MFQLSVQDIHPGEKAGDKEEAIRQVAAALVQAGNVAEGYVNGMLAREQQTSTFLGNGIAIPHGTTDTRDQVLKTGVQVFQFPEGVTWGDGQVAYVAIGIAASSDEHLGLLRQLTHVLSDDSVAEQLKSATTAEELRALLMGEKQSEQLKLDNEMLTLDIVASDLLTLQALNAARLKEAGAVDATFVTKAINEQPLNLGQGIWLSDSAEGNLRSAIAVSRAANAFDVDGETAAMLVSVAMNDDQPIAVLKRLADLLLDNKADRLLKADAATLLALLTSDDAPTDDVLSAEFVVRNEHGLHARPGTMLVNTIKQFNSDITVTNLDGTGKPANGRSLMKVVALGVKKGHRLRFTAQGADAEQALKAIGDAIAAGLGEGA | binds | 
3 | GatC (galactitol Enzyme IIC) (protein, UniProt P69831 1-451) MFSEVMRYILDLGPTVMLPIVIIIFSKILGMKAGDCFKAGLHIGIGFVGIGLVIGLMLDSIGPAAKAMAENFDLNLHVVDVGWPGSSPMTWASQIALVAIPIAILVNVAMLLTRMTRVVNVDIWNIWHMTFTGALLHLATGSWMIGMAGVVIHAAFVYKLGDWFARDTRNFFELEGIAIPHGTSAYMGPIAVLVDAIIEKIPGVNRIKFSADDIQRKFGPFGEPVTVGFVMGLIIGILAGYDVKGVLQLAVKTAAVMLLMPRVIKPIMDGLTPIAKQARSRLQAKFGGQEFLIGLDPALLLGHTAVVSASLIFIPLTILIAVCVPGNQVLPFGDLATIGFFVAMAVAVHRGNLFRTLISGVIIMSITLWIATQTIGLHTQLAANAGALKAGGMVASMDQGGSPITWLLIQVFSPQNIPGFIIIGAIYLTGIFMTWRRARGFIKQEKVVLAE | binds | 

Second part, the molecule after the results:

Row | binding [1] | binding [2] | Molecule
4 | binds |  | TreB (trehalose Enzyme IIBC) (protein, UniProt P36672 1-473) MMSKINQTDIDRLIELVGGRGNIATVSHCITRLRFVLNQPANARPKEIEQLPMVKGCFTNAGQFQVVIGTNVGDYYQALIASTGQAQVDKEQVKKAARHNMKWHEQLISHFAVIFFPLLPALISGGLILGFRNVIGDLPMSNGQTLAQMYPSLQTIYDFLWLIGEAIFFYLPVGICWSAVKKMGGTPILGIVLGVTLVSPQLMNAYLLGQQLPEVWDFGMFSIAKVGYQAQVIPALLAGLALGVIETRLKRIVPDYLYLVVVPVCSLILAVFLAHALIGPFGRMIGDGVAFAVRHLMTGSFAPIGAALFGFLYAPLVITGVHQTTLAIDLQMIQSMGGTPVWPLIALSNIAQGSAVIGIIISSRKHNEREISVPAAISAWLGVTEPAMYGINLKYRFPMLCAMIGSGLAGLLCGLNGVMANGIGVGGLPGILSIQPSYWQVFALAMAIAIIIPIVLTSFIYQRKYRLGTLDIV
5 | binds | binds | NagE (N-acetylglucosamine Enzyme IICBA) (protein, UniProt P09323 1-648) MNILGFFQRLGRALQLPIAVLPVAALLLRFGQPDLLNVAFIAQAGGAIFDNLALIFAIGVASSWSKDSAGAAALAGAVGYFVLTKAMVTINPEINMGVLAGIITGLVGGAAYNRWSDIKLPDFLSFFGGKRFVPIATGFFCLVLAAIFGYVWPPVQHAIHAGGEWIVSAGALGSGIFGFINRLLIPTGLHQVLNTIAWFQIGEFTNAAGTVFHGDINRFYAGDGTAGMFMSGFFPIMMFGLPGAALAMYFAAPKERRPMVGGMLLSVAVTAFLTGVTEPLEFLFMFLAPLLYLLHALLTGISLFVATLLGIHAGFSFSAGAIDYALMYNLPAASQNVWMLLVMGVIFFAIYFVVFSLVIRMFNLKTPGREDKEDEIVTEEANSNTEEGLTQLATNYIAAVGGTDNLKAIDACITRLRLTVADSARVNDTMCKRLGASGVVKLNKQTIQVIVGAKAESIGDAMKKVVARGPVAAASAEATPATAAPVAKPQAVPNAVSIAELVSPITGDVVALDQVPDEAFASKAVGDGVAVKPTDKIVVSPAAGTIVKIFNTNHAFCLETEKGAEIVVHMGIDTVALEGKGFKRLVEEGAQVSAGQPILEMDLDYLNANARSMISPVVCSNIDDFSGLIIKAQGHIVAGQTPLYEIKK

Source: paper doi:10.1101/681411
